PubChem BioAssay AID1224830 | NIAID – 2016
Aim: 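Host factors that control LPS-induced TNF expression in human macrophages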 (primary screen). Cells: human THP-1 monocytic leukaemia cells, TNF dual-luciferase reporter clone, PMA-differentiated to macrophage-like cells. Reagents: siRNA pool against human genes, 50 nM. Time to read-out: LPS for 4 h, given about 3 days after siRNA transfection. Treatment: bacterial LPS (TLR4 ligand), 10 ng/ml. Read-out: 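TNF firefly reporter luminescence divided by renilla, normalised to the plate median, then turned into a robust z-score for each replicate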. Scale: TNF reporter robust z-score: higher = stronger TNF reporter response to LPS. Active means: 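Each well counts as active if its z-score is over 2.8 or under -1.5; controls are left without a call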.
The deposit covers about 18,000 reagents; this is a random part of them. About 2,900 of them (16%) were called active. 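Calls are made per well; low scores hint the gene aids the LPS response, high scores that it dampens it.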 Repeated entries: four replicate wells of each siRNA pool.

Gene,TNF reporter robust z-score,Call
PIGU (GeneID 128869),1.43,inactive
PIGU (GeneID 128869),1.26,inactive
PIGU (GeneID 128869),1.38,inactive
PIGU (GeneID 128869),0.7,inactive
CRISPLD1 (GeneID 83690),-0.45,inactive
CRISPLD1 (GeneID 83690),-0.55,inactive
CRISPLD1 (GeneID 83690),-0.11,inactive
CRISPLD1 (GeneID 83690),-0.02,inactive
PEAK1 (GeneID 79834),1.49,inactive
PEAK1 (GeneID 79834),0.32,inactive
PEAK1 (GeneID 79834),0.49,inactive
PEAK1 (GeneID 79834),2.91,active
LMO4 (GeneID 8543),-0.02,inactive
LMO4 (GeneID 8543),0.36,inactive
LMO4 (GeneID 8543),0.5,inactive
LMO4 (GeneID 8543),1.79,inactive
TUBB2B (GeneID 347733),0.17,inactive
TUBB2B (GeneID 347733),-0.88,inactive
TUBB2B (GeneID 347733),-0.58,inactive
TUBB2B (GeneID 347733),0.4,inactive
ADH1A (GeneID 124),0.29,inactive
ADH1A (GeneID 124),1.54,inactive
ADH1A (GeneID 124),1.36,inactive
ADH1A (GeneID 124),1.27,inactive
DBNDD2 (GeneID 55861),0.57,inactive
DBNDD2 (GeneID 55861),0.24,inactive
DBNDD2 (GeneID 55861),-0.49,inactive
DBNDD2 (GeneID 55861),0.63,inactive
SMAP1 (GeneID 60682),2.48,inactive
SMAP1 (GeneID 60682),-0.17,inactive
SMAP1 (GeneID 60682),-0.21,inactive
SMAP1 (GeneID 60682),0.11,inactive
SLC44A2 (GeneID 57153),1.67,inactive
SLC44A2 (GeneID 57153),4.9,active
SLC44A2 (GeneID 57153),1.43,inactive
SLC44A2 (GeneID 57153),2.42,inactive
UPP1 (GeneID 7378),1.07,inactive
UPP1 (GeneID 7378),2.14,inactive
UPP1 (GeneID 7378),0.93,inactive
UPP1 (GeneID 7378),2.27,inactive
BFSP2 (GeneID 8419),0.89,inactive
BFSP2 (GeneID 8419),2,inactive
BFSP2 (GeneID 8419),0.67,inactive
BFSP2 (GeneID 8419),3,active
PREP (GeneID 5550),0.77,inactive
PREP (GeneID 5550),-0.35,inactive
PREP (GeneID 5550),0.55,inactive
PREP (GeneID 5550),1.01,inactive
SLC22A15 (GeneID 55356),-0.57,inactive
SLC22A15 (GeneID 55356),-0.31,inactive
SLC22A15 (GeneID 55356),-1.07,inactive
SLC22A15 (GeneID 55356),-0.24,inactive
ZNF746 (GeneID 155061),0.76,inactive
ZNF746 (GeneID 155061),-0.85,inactive
ZNF746 (GeneID 155061),-0.83,inactive
ZNF746 (GeneID 155061),1.21,inactive
ABR (GeneID 29),0.17,inactive
ABR (GeneID 29),1.26,inactive
ABR (GeneID 29),0.06,inactive
ABR (GeneID 29),3.77,active
RPS28 (GeneID 6234),-0.54,inactive
RPS28 (GeneID 6234),-1.3,inactive
RPS28 (GeneID 6234),-0.69,inactive
RPS28 (GeneID 6234),-0.35,inactive
CPXM1 (GeneID 56265),-0.34,inactive
CPXM1 (GeneID 56265),-0.55,inactive
CPXM1 (GeneID 56265),-0.75,inactive
CPXM1 (GeneID 56265),-0.17,inactive
RBBP8 (GeneID 5932),0.23,inactive
RBBP8 (GeneID 5932),-0.05,inactive
RBBP8 (GeneID 5932),0,inactive
RBBP8 (GeneID 5932),0.16,inactive
ZP4 (GeneID 57829),-0.72,inactive
ZP4 (GeneID 57829),-0.4,inactive
ZP4 (GeneID 57829),-0.26,inactive
ZNF91 (GeneID 7644),1.26,inactive
ZNF91 (GeneID 7644),1.63,inactive
ZNF91 (GeneID 7644),1.13,inactive
ZNF91 (GeneID 7644),-0.77,inactive
CCDC81 (GeneID 60494),-0.37,inactive
CCDC81 (GeneID 60494),-0.94,inactive
CCDC81 (GeneID 60494),-0.16,inactive
MAGEA6 (GeneID 4105),0.32,inactive
MAGEA6 (GeneID 4105),0.21,inactive
MAGEA6 (GeneID 4105),0.34,inactive
MAGEA6 (GeneID 4105),1.65,inactive
ARMCX5 (GeneID 64860),-0.74,inactive
ARMCX5 (GeneID 64860),-0.09,inactive
ARMCX5 (GeneID 64860),0.14,inactive
ARMCX5 (GeneID 64860),-1,inactive
PTGES (GeneID 9536),0.6,inactive
PTGES (GeneID 9536),7.93,active
PTGES (GeneID 9536),0.58,inactive
PTGES (GeneID 9536),2.21,inactive
IGSF21 (GeneID 84966),-0.08,inactive
IGSF21 (GeneID 84966),-0.57,inactive
IGSF21 (GeneID 84966),0.45,inactive
IGSF21 (GeneID 84966),0.87,inactive
ACTN4 (GeneID 81),-0.3,inactive
ACTN4 (GeneID 81),0.48,inactive
ACTN4 (GeneID 81),-0.16,inactive
ACTN4 (GeneID 81),0.02,inactive
NLRP13 (GeneID 126204),0.53,inactive
NLRP13 (GeneID 126204),1.85,inactive
NLRP13 (GeneID 126204),0.89,inactive
NLRP13 (GeneID 126204),2.03,inactive
DIRAS1 (GeneID 148252),-1.06,inactive
DIRAS1 (GeneID 148252),-1.03,inactive
DIRAS1 (GeneID 148252),-1,inactive
DIRAS1 (GeneID 148252),-0.85,inactive

Ordered by “TNF reporter robust z-score” (high to low): some entries from above.
Gene,TNF reporter robust z-score,Call
SLC44A2 (GeneID 57153),4.9,active
SMAP1 (GeneID 60682),2.48,inactive
SLC44A2 (GeneID 57153),2.42,inactive
SLC44A2 (GeneID 57153),1.67,inactive
ADH1A (GeneID 124),1.54,inactive
SLC44A2 (GeneID 57153),1.43,inactive
ADH1A (GeneID 124),1.36,inactive
ADH1A (GeneID 124),1.27,inactive
DBNDD2 (GeneID 55861),0.63,inactive
DBNDD2 (GeneID 55861),0.57,inactive
TUBB2B (GeneID 347733),0.4,inactive
ADH1A (GeneID 124),0.29,inactive
DBNDD2 (GeneID 55861),0.24,inactive
SMAP1 (GeneID 60682),0.11,inactive
SMAP1 (GeneID 60682),-0.17,inactive
SMAP1 (GeneID 60682),-0.21,inactive
DBNDD2 (GeneID 55861),-0.49,inactive
